Reference: patent US20250032629A1, “NOVEL NUCLEOLIN-BINDING PEPTIDE AND USE THEREOF” (ANYGEN CO., LTD., priority 2020, published 2025)

Test system: MDA-MB-231 cells
Experiment: Cell proliferation assay (WST-1), AGM-330-PTX
Assay type: cell-based
Conditions: Homo sapiens, MDA-MB-231, 48 h

- IC50: 6.8 µM
SMILES: CC(=O)O[C@H]1C(=O)[C@@]2(C)[C@H]([C@H](OC(=O)c3ccccc3)[C@]3(O)C[C@H](OC(=O)[C@H](O)[C@@H](NC(=O)c4ccccc4)c4ccccc4)C(C)=C1C3(C)C)[C@]1(OC(C)=O)CO[C@@H]1C[C@@H]2O [PTX, Paclitaxel, reference compound]
